Record: PubChem BioAssay AID686938 (Drosophila RNAi Screening Center, 2013)

Screen: 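Looking for CRAC channel components and the factors controlling them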 (primary screen)
Cells: Drosophila S2R+ cells
Reagents: long dsRNA against Drosophila genes, about 0.25 µg dsRNA per well, roughly 10,000 cells
Timing: 5 days of knock-down before the calcium assay
Challenge: thapsigargin (SERCA pump blocker) to empty calcium stores; entry signal taken 4 min after adding it
Measured: 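Duplicate raw fluo-4 intensities per well from a plate reader, at rest and four minutes after thapsigargin emptied calcium stores; entry-to-rest ratio filled for only some wells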
Scale: calcium entry signal: higher = stronger calcium signal after store depletion; entry to resting ratio: higher = more calcium entry relative to resting level; resting calcium signal: higher = higher resting calcium signal
Hit rule: 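Called when the plate z-score of the entry-to-rest ratio, mean of duplicates, falls below −3; wells with low overall dye signal (Fmax z below −2) or more than five off-targets excluded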
Calls: active = strongly reduced calcium entry; inactive = no strong reduction
The deposit covers about 23,000 reagents; shown is an unselected part of those that have a named target and a result. In the full data, 75 (0.33%) were called active. 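Raw plate signals without normalisation; calls rest on plate z-scores that were not deposited; ratio present for only 364 wells.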 Not given: the dose of the treatment.

no.	target	amplicon	calcium entry signal, replicate 1 (fluorescence units)	calcium entry signal, replicate 2 (fluorescence units)	entry to resting ratio	resting calcium signal, replicate 1 (fluorescence units)	resting calcium signal, replicate 2 (fluorescence units)	outcome
1	Tmhs	DRSC08231	4.63e7	4.37e7		2.07e7	1.97e7	inactive
2	CG13667	DRSC10028	3.96e7	3.02e7		2.68e7	1.47e7	inactive
3	CG14628	DRSC18626	3.51e7	6.80e7	2	1.74e7	2.36e7	inactive
4	CG6026	DRSC15950	2.50e7	2.66e7		3.22e7	1.26e7	inactive
5	CG5704	DRSC08572	4.04e7	3.65e7		1.88e7	2.01e7	inactive
6	Stat92E	DRSC16870	3.18e7	2.91e7		1.45e7	1.36e7	inactive
7	CG13901	DRSC08371	3.58e7	3.68e7		1.88e7	1.77e7	inactive
8	CG12708	DRSC19490	3.41e7	3.62e7		1.70e7	1.74e7	inactive
9	CG1544	DRSC15036	3.24e7	4.09e7		1.41e7	1.90e7	inactive
10	CG13949	DRSC00367	2.73e7	3.63e7		1.39e7	1.88e7	inactive
11	Or1a	DRSC18689	4.46e7	5.37e7	2.1	2.14e7	2.08e7	inactive
12	PIG-A	DRSC06982	3.29e7	2.41e7		1.48e7	1.35e7	inactive
13	Rab26	DRSC11837	3.28e7	4.05e7		1.60e7	2.51e7	inactive
14	Rab26	DRSC11838	2.04e7	3.27e7		9.48e6	1.50e7	inactive
15	Rab26	DRSC11839	2.36e7	3.41e7		1.15e7	1.48e7	inactive
16	IKKbeta	DRSC16714	3.21e7	2.31e7		1.52e7	1.11e7	inactive
17	CG14511	DRSC14863	2.53e7	2.96e7		1.45e7	1.37e7	inactive
18	HPS4	DRSC06906	3.87e7	5.28e7		1.69e7	2.40e7	inactive
19	meep	DRSC07948	4.57e7	4.63e7		2.26e7	1.98e7	inactive
20	CG17568	DRSC02628	4.00e7	4.17e7		2.42e7	2.09e7	inactive
21	CG42591	DRSC08905	2.06e7	3.60e7		1.21e7	1.61e7	inactive
22	CG34263	DRSC07866	3.38e7	4.44e7		1.68e7	1.99e7	inactive
23	Nmda1	DRSC07479	4.34e7	4.61e7		1.80e7	1.96e7	inactive
24	cyr	DRSC18017	3.63e7	4.47e7		1.72e7	2.05e7	inactive
25	cyr	DRSC18018	3.34e7	4.42e7		1.70e7	2.05e7	inactive
26	cyr	DRSC18021	3.04e7	4.50e7		1.61e7	2.08e7	inactive
